Results: paper PMC6100580
No constants are given. Whether binding was seen depends on the method and setting. In cells and extracts the contact can be indirect. Some binding calls cover weakened binding; strength is not graded here.

The chains behind the UniProt entries cited, without tags or fusion partners. Where a name states a change or a piece, a line headed by the entry shows the natural chain unless it says otherwise.
UniProt Q16531: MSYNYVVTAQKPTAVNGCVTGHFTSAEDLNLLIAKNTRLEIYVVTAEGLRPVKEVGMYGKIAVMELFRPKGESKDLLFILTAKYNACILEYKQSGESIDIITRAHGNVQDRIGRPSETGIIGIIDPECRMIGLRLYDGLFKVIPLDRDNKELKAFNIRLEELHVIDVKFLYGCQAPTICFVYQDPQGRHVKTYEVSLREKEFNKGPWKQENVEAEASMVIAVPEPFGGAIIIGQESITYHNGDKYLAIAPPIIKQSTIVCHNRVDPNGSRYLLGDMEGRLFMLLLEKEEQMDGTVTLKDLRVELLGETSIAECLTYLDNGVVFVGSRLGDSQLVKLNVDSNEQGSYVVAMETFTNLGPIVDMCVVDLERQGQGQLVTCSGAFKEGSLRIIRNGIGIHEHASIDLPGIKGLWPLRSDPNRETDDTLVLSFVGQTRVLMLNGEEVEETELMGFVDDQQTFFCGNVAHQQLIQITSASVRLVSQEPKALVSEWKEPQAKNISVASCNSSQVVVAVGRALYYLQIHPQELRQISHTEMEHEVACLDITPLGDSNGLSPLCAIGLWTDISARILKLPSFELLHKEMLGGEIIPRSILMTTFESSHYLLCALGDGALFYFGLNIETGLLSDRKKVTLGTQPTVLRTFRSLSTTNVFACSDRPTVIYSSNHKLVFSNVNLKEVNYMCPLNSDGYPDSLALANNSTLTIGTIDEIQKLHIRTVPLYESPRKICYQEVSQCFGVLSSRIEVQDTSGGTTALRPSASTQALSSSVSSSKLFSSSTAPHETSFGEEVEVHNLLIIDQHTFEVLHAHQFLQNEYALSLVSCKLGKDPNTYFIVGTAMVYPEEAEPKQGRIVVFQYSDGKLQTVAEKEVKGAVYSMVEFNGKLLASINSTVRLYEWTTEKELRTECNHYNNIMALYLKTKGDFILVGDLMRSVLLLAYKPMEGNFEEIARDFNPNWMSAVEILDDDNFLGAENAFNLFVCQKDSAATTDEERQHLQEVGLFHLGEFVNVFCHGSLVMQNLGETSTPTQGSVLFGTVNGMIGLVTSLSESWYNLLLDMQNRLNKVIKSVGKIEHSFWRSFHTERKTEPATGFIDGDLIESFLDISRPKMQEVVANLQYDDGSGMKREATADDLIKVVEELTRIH
UniProt Q8IY18: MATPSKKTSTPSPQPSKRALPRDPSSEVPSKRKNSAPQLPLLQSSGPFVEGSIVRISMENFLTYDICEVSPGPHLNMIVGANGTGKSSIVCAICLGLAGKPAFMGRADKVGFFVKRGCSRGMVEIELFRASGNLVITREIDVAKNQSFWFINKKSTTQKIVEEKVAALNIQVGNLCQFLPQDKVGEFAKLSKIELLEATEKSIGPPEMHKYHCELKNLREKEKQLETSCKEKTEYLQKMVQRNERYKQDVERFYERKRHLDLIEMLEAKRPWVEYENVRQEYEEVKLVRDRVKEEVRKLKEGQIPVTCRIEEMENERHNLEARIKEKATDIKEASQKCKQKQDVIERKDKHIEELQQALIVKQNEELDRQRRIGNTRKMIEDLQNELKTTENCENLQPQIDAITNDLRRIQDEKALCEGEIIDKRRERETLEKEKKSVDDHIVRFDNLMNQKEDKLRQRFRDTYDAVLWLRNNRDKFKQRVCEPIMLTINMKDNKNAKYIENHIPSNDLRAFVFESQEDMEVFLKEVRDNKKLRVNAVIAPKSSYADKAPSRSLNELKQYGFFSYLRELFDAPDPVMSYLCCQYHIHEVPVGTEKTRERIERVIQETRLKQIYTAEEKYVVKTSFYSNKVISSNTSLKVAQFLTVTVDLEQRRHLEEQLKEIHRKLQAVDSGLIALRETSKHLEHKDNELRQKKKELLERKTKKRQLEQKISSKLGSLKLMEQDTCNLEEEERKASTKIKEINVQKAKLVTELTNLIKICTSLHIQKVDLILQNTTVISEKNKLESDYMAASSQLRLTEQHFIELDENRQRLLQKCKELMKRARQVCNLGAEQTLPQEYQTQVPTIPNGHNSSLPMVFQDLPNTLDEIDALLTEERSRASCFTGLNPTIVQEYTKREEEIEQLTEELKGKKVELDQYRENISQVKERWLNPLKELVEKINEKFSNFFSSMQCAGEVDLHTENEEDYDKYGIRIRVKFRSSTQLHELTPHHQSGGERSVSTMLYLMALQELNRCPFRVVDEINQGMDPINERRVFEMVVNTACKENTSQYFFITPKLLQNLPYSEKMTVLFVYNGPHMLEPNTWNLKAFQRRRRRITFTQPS

Molecular target: Flag-DDB1 (UniProt Q16531)
Test: co-IP; 293 T cells transfected with HA-TRIM14, Flag-DDB1 or GST-HBx plasmids as indicated; 36 h later MG132 (10 uM) for 8 h; ANTI-FLAG M2 Affinity Gel; immunoblot

binding: binds
Substance: Smc5/6 (from UniProt Q8IY18 1-1101; Q96SB8 1-1091) (complex)
